PubChem BioAssay AID328 (DTP/NCI, 2004)
The list is a part of this screen's results and no random one: it gathers tests that were run many times, whatever their T/C, doses with no T/C, and many T/C values between a quarter and a half above the control. Other doses and runs of a compound stand elsewhere. T/C is the treated group as % of the vehicle group. Some entries give survivors of the animals treated and no T/C: the source holds a T/C of zero for them, seemingly a mark for toxic or unscored doses. Some survivor counts are full or nearly so, which does not show that the dose was tolerated: the source hardly ever lists a survival T/C far under the control, and the zero likely stands for such cases as well. Survivors were counted at the toxicity check, usually on the fifth day, unless a day is given; later deaths do not show. Schedules are NCI's codes, taken here to give the interval after Q, in days (D) or hours (H), and the number of doses after X. For survival time, this PubChem deposit counts one and a half times the control or more as active, and values a quarter to a half above the control carry no call in these data; other NCI protocols may use other cut-offs. Brackets with × stand for listed records that agree. Some entries hold several experiments; the values are given in rising order. Some T/C values carry the count of animals alive at the toxicity check (mostly the fifth day); without a count, all were alive then.

Tested on: BDF1 mice, P388 leukemia ip, median survival T/C
Assay: NCI In Vivo Anticancer Drug Screen. Data for tumor model P388 Leukemia (intraperitoneal) in B6D2F1 (BDF1) mice
Conditions: T/C endpoint: median survival time, higher T/C = longer survival
Method in brief: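 In tumour-bearing mice, survival after compound treatment is set against the vehicle group and given as a quotient.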

[1] = dose: 200.0 mg/kg/injection, schedule: Q01DX009 (ip), vehicle: Klucel (hydroxypropylcellulose) (HPC)
[2] = dose: 150.0 mg/kg/injection, schedule: Q04DX003 (ip), vehicle: saline with Tween-80
[3] = dose: 200.0 mg/kg/injection, schedule: Q04DX003 (ip), vehicle: saline with Tween-80

Q: With `C=C(C)C(=O)O[C@H]1CC2=C[C@@H](C[C@@]3(C)O[C@@H]3[C@H]3OC(=O)C(=C)[C@@H]31)OC2=O` as the molecule, how does the T/C (dose: 3.75 mg/kg/injection, schedule: Q01DX009 (ip), vehicle: water) read?
A: 133 and 138 % of control

Q: What about the T/C (dose: 5.0 mg/kg/injection, schedule: Q01DX009 (ip), vehicle: saline + alcohol) of the same molecule?
A: 127 % of control

Q: And the T/C (dose: 7.5 mg/kg/injection, schedule: Q01DX009 (ip), vehicle: water)?
A: 138 % of control (2×)

Q: What about the T/C (dose: 7.5 mg/kg/injection, schedule: Q01DX010 (ip), vehicle: carboxymethylcellulose (CMC)) of the same molecule?
A: 140 % of control

Q: And the T/C (dose: 10.0 mg/kg/injection, schedule: Q01DX009 (ip), vehicle: saline + alcohol)?
A: 127 % of control

Q: What about the T/C (dose: 15.0 mg/kg/injection, schedule: Q01DX009 (ip), vehicle: water) of the same molecule?
A: 133 and 138 % of control

Q: And the T/C (dose: 20.0 mg/kg/injection, schedule: Q01DX009 (ip), vehicle: saline)?
A: 145 % of control

Q: What about the T/C (dose: 20.0 mg/kg/injection, schedule: Q01DX010 (ip), vehicle: carboxymethylcellulose (CMC)) of the same molecule?
A: 140 % of control

Q: What about the T/C (dose: 30.0 mg/kg/injection, schedule: Q01DX009 (ip), vehicle: water) of the same molecule?
A: 142 and 147 % of control

Q: And the T/C (dose: 40.0 mg/kg/injection, schedule: Q01DX009 (ip), vehicle: saline + alcohol)?
A: 127 % of control

Q: And the T/C (dose: 40.0 mg/kg/injection, schedule: Q01DX010 (ip), vehicle: carboxymethylcellulose (CMC))?
A: 140 % of control

Q: And the T/C (dose: 60.0 mg/kg/injection, schedule: Q01DX010 (ip), vehicle: carboxymethylcellulose (CMC), evaluated on day 29)?
A: 136 % of control

Q: And the T/C (dose: 60.0 mg/kg/injection, schedule: Q01DX010 (ip), vehicle: carboxymethylcellulose (CMC), evaluated on day 30)?
A: 125 % of control

Q: And the T/C (dose: 60.0 mg/kg/injection, schedule: Q01DX010 (ip), vehicle: carboxymethylcellulose (CMC), evaluated on day 32)?
A: 128 % of control

Q: What about the survivor count (dose: 90.0 mg/kg/injection, schedule: Q01DX010 (ip), vehicle: carboxymethylcellulose (CMC)) of the same molecule?
A: 3 of 6

Q: With `Oc1ccc(N=Cc2ccccc2O)cc1` as the molecule, how does the T/C (dose: 200.0 mg/kg/injection, schedule: Q01DX009 (ip), vehicle: saline) read?
A: 125 % of control

Q: And the T/C (dose: 264.0 mg/kg/injection, schedule: Q01DX009 (ip), vehicle: saline)?
A: 131 % of control

Q: What about the T/C (dose: 400.0 mg/kg/injection, schedule: Q01DX009 (ip), vehicle: saline) of the same molecule?
A: 131 and 133 % of control

Q: How did the T/C (dose: 5.5 mg/kg/injection, schedule: Q04DX003 (ip), vehicle: other) turn out when `O=NN(CCCl)C(=O)NC1C2CC3CC(C2)CC1C3` (stereo not given) was run?
A: 131 % of control

Q: `COc1ccccc1CC(C)N` (stereo not given) was tested. Which survivor count (dose: 40.0 mg/kg/injection, schedule: Q01DX009 (ip), vehicle: saline with Tween-80) did it give?
A: 6 of 6

Q: How did the T/C (dose: 0.75 mg/kg/injection, schedule: Q01DX009 (ip), vehicle: saline) turn out when `O=C1C(F)=C(N2CC2)C(=O)C(N2CCOCC2)=C1N1CC1` was run?
A: 125 % of control

Q: What about the survivor count (dose: 1.5 mg/kg/injection, schedule: Q01DX009 (ip), vehicle: saline) of the same molecule?
A: 5 of 6

Q: What does the source list for `NSc1ccc([N+](=O)[O-])cc1`?
A: survivor count (dose: 200.0 mg/kg/injection, schedule: Q01DX001 (ip), vehicle: other): 2 of 6; survivor count (dose: 400.0 mg/kg/injection, schedule: Q01DX001 (ip), vehicle: other): 1 of 6

Q: Which survivor count (dose: 12.5 mg/kg/injection, schedule: Q01DX009 (ip), vehicle: Klucel (hydroxypropylcellulose) (HPC)) does the source give for `CC(C)c1ccc2c(c1)CC[C@H]1[C@](C)(CN=C(N)CCl)CCC[C@]21C` here?
A: 5 of 6

Q: And the survivor count (dose: 25.0 mg/kg/injection, schedule: Q01DX009 (ip), vehicle: Klucel (hydroxypropylcellulose) (HPC))?
A: 6 of 6

Q: What about the survivor count (dose: 50.0 mg/kg/injection, schedule: Q01DX009 (ip), vehicle: Klucel (hydroxypropylcellulose) (HPC)) of the same molecule?
A: 3 of 6

Q: And the survivor count (dose: 100.0 mg/kg/injection, schedule: Q01DX009 (ip), vehicle: Klucel (hydroxypropylcellulose) (HPC))?
A: 0 of 6

Q: What about the survivor count [1] of the same molecule?
A: 0 of 6

Q: For `CCCC(O)C(NC(=O)CCl)C(=O)O` (stereo not given), which survivor count (dose: 500.0 mg/kg/injection, schedule: Q01DX005 (ip), vehicle: other) is on record?
A: 1 of 6

Q: What about the survivor count (dose: 1000.0 mg/kg/injection, schedule: Q01DX005 (ip), vehicle: other) of the same molecule?
A: 0 of 6

Q: `COC1OC(CO)C(O)C(O)C1O` (stereo not given) was tested. Which survivor count (dose: 50.0 mg/kg/injection, schedule: Q01DX009 (ip), vehicle: saline) did it give?
A: 6 of 6

Q: With `CNC(=N)c1ccc(NC(=N)c2ccc(NC(=N)c3ccc(NC(=O)Nc4ccc(C(=N)Nc5ccc(C(=N)Nc6ccc(C(=N)NC)cc6)cc5)cc4)cc3)cc2)cc1` as the molecule, how does the T/C (dose: 5.5 mg/kg/injection, schedule: Q04DX003 (ip), vehicle: saline with Tween-80) read?
A: 141 % of control

Q: What about the T/C (dose: 6.25 mg/kg/injection, schedule: Q01DX009 (ip), vehicle: saline with Tween-80) of the same molecule?
A: 126 % of control

Q: And the T/C (dose: 6.25 mg/kg/injection, schedule: Q04DX003 (ip), vehicle: saline with Tween-80)?
A: 145 % of control

Q: And the T/C (dose: 8.0 mg/kg/injection, schedule: Q04DX003 (ip), vehicle: saline with Tween-80)?
A: 133 % of control

Q: What about the T/C (dose: 12.5 mg/kg/injection, schedule: Q01DX009 (ip), vehicle: saline with Tween-80) of the same molecule?
A: 134 % of control

Q: What about the T/C (dose: 12.5 mg/kg/injection, schedule: Q04DX003 (ip), vehicle: saline with Tween-80) of the same molecule?
A: 141 % of control

Q: And the survivor count [2]?
A: 2 of 6

Q: Which results are given for `OCC1(c2ccccc2)CCN(Cc2ccccc2)CC1`?
A: survivor count [1]: 2 of 6; survivor count (dose: 400.0 mg/kg/injection, schedule: Q01DX009 (ip), vehicle: Klucel (hydroxypropylcellulose) (HPC)): 0 of 6; survivor count (dose: 400.0 mg/kg/injection, schedule: Q04DX003 (ip), vehicle: Klucel (hydroxypropylcellulose) (HPC)): 5 of 6

Q: `C[N+](C)(C)CCC[N+](C)(C)C` was tested. Which T/C (dose: 50.0 mg/kg/injection, schedule: Q01DX006 (ip), vehicle: saline) did it give?
A: 131 % of control

Q: What about the T/C (dose: 100.0 mg/kg/injection, schedule: Q01DX006 (ip), vehicle: saline) of the same molecule?
A: 125 % of control

Q: And the T/C (dose: 150.0 mg/kg/injection, schedule: Q01DX006 (ip), vehicle: saline)?
A: 137 % of control

Q: `CC1CC/C(=N\N(C)C)c2ccccc21` (stereo not given) was tested. Which T/C (dose: 100.0 mg/kg/injection, schedule: Q04DX003 (ip), vehicle: saline with Tween-80) did it give?
A: 141 % of control

Q: What about the T/C [2] of the same molecule?
A: 127 % of control

Q: What about the T/C [3] of the same molecule?
A: 133 % of control

Q: How did the survivor count (dose: 125.0 mg/kg/injection, schedule: Q01DX010 (ip), vehicle: saline) turn out when `CCn1cnc2c(=S)nc[nH]c21` was run?
A: 6 of 6

Q: What does the source list for `Cc1c([C@H](C)[C@@H]2NC[C@@H](C)C[C@H]2O)ccc2c1C[C@H]1[C@H]2CC=C2C[C@@H](O)CC[C@@]21C`?
A: T/C (dose: 6.0 mg/kg/injection, schedule: Q01DX010 (ip), vehicle: carboxymethylcellulose (CMC)): 130 % of control [5 of 6 alive]; survivor count (dose: 12.0 mg/kg/injection, schedule: Q01DX010 (ip), vehicle: carboxymethylcellulose (CMC)): 0 of 6

Q: `COC(=O)N1c2ccccc2C=CC1C#N` (stereo not given) was tested. Which survivor count (dose: 50.0 mg/kg/injection, schedule: Q01DX009 (ip), vehicle: saline with Tween-80) did it give?
A: 6 of 6

Q: And the survivor count [3]?
A: 6 of 6

Q: What about the survivor count (dose: 400.0 mg/kg/injection, schedule: Q04DX003 (ip), vehicle: saline with Tween-80) of the same molecule?
A: 3 of 6

Q: How did the T/C (dose: 8.0 mg/kg/injection, schedule: Q01DX010 (ip), vehicle: saline) turn out when `C=C(C)[C@H]1Cc2c(ccc3c2O[C@@H]2COc4cc(OC)c(OC)cc4[C@@H]2C3=O)O1` was run?
A: 127 % of control

Q: And the T/C (dose: 16.0 mg/kg/injection, schedule: Q01DX010 (ip), vehicle: saline)?
A: 136 % of control

Q: And the survivor count (dose: 32.0 mg/kg/injection, schedule: Q01DX010 (ip), vehicle: saline)?
A: 6 of 6

Q: And the survivor count (dose: 100.0 mg/kg/injection, schedule: Q01DX001 (ip), vehicle: saline with Tween-80)?
A: 3 of 6

Q: And the survivor count (dose: 200.0 mg/kg/injection, schedule: Q01DX001 (ip), vehicle: saline with Tween-80)?
A: 0 of 6

Q: What about the survivor count (dose: 400.0 mg/kg/injection, schedule: Q01DX001 (ip), vehicle: saline with Tween-80) of the same molecule?
A: 0 of 6

Q: For `O=[N+]([O-])c1ccccc1N=P(c1ccccc1)(c1ccccc1)c1ccccc1`, which survivor count (dose: 200.0 mg/kg/injection, schedule: Q01DX009 (ip), vehicle: DMSO) is on record?
A: 3 of 6

Q: With `CC(=O)N(C)c1ccc(Nc2cc(C)[nH]c3ccc4ncnc4c23)cc1` as the molecule, how does the T/C (dose: 25.0 mg/kg/injection, schedule: Q04DX002 (ip), vehicle: saline) read?
A: 137 % of control

Q: And the survivor count (dose: 200.0 mg/kg/injection, schedule: Q04DX002 (ip), vehicle: saline with Tween-80)?
A: 5 of 6

Q: And the survivor count (dose: 200.0 mg/kg/injection, schedule: Q04DX002 (ip), vehicle: saline)?
A: 6 of 6

Q: What about the survivor count (dose: 400.0 mg/kg/injection, schedule: Q04DX002 (ip), vehicle: saline with Tween-80) of the same molecule?
A: 0 of 6
